Legend:
in vitro = settings: rat, microsomes
[1] = in vivo, im; cited from earlier work

COc1cc2c(cc1OC)C(=O)C(CC1CCN(Cc3ccccc3)CC1)C2 (centres unmarked) [donepezil, reference compound]
remaining at 2 h (in vitro): 75.1% | clearance [1]: 1 mL/min/kg

From paper PMC10823479 (Journal of Medicinal Chemistry, 2024)
